# Paper PMC4550850
# Chains of the proteins cited; added tags and fusions are not shown.
# UniProt Q8IVB5: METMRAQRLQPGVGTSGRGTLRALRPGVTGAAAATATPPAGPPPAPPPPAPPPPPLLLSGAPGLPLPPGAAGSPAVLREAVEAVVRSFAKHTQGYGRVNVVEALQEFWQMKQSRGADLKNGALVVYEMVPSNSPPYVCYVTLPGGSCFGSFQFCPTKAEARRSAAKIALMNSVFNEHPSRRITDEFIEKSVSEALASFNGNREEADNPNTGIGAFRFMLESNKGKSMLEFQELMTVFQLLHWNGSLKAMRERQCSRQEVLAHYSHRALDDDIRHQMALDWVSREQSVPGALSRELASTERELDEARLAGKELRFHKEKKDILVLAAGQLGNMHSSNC
# These are yes or no findings as the source states them, for the method shown. In cells and extracts the contact can be indirect. Here binding means that the protein was enriched with, or labelled near, the bait; the list need not be complete.
# B1: hnRNPL (protein, UniProt P14866 1-589)
# chain: MSRRLLPRAEKRRRRLEQRQQPDEQRRRSGAMVKMAAAGGGGGGGRYYGGGSEGGRAPKRLKTDNAGDQHGGGGGGGGGAGAAGGGGGGENYDDPHKTPASPVVHIRGLIDGVVEADLVEALQEFGPISYVVVMPKKRQALVEFEDVLGACNAVNYAADNQIYIAGHPAFVNYSTSQKISRPGDSDDSRSVNSVLLFTILNPIYSITTDVLYTICNPCGPVQRIVIFRKNGVQAMVEFDSVQSAQRAKASLNGADIYSGCCTLKIEYAKPTRLNVFKNDQDTWDYTNPNLSGQGDPGSNPNKRQRQPPLLGDHPAEYGGPHGGYHSHYHDEGYGPPPPHYEGRRMGPPVGGHRRGPSRYGPQYGHPPPPPPPPEYGPHADSPVLMVYGLDQSKMNCDRVFNVFCLYGNVEKVKFMKSKPGAAMVEMADGYAVDRAITHLNNNFMFGQKLNVCVSKQPAIMPGQSYGLEDGSCSYKDFSESRNNRFSTPEQAAKNRIQHPSNVLHFFNAPLEVTEENFFEICDELGVKRPSSVKVFSGKSERSSSGLLEWESKSDALETLGFLNHYQMKNPNGPYPYTLKLCFSTAQHAS
# Target: FLAG-LIX1L fusion protein (Limb expression 1-like) (human) (UniProt Q8IVB5)
# Assay: affinity purification with mass spectrometry; anti-FLAG immunoprecipitation from the nuclear fraction of HEK-293FLG-LIX1L cells, treated without RNase; differentially expressed bands identified by MALDI-TOF/TOF
binder,measurement,value
B1,binding,binds
